For this experiment, the target named is Recombinant wild-type (WT) NEIL1 (human) (UniProt Q96FI4). Put plainly: far-Western, overlay or dot blot; WT NEIL1 and N311 (40 pmol) on nitrocellulose after 12% SDS-PAGE, denatured in situ with 6M guanidine-HCl and renatured; membrane incubated with Polβ, LigIIIα or XRCC1 (10 pmol/mL) in PBS, 0.5% nonfat dried milk, 0.05% Tween 20, 10 mM TMAO, 1 mM DTT for 3 h; immunoblotting; both purified. For orientation: In western blotting, separated proteins are transferred to a membrane and probed.

Chains of the proteins cited; added tags and fusions are not shown. Lines headed by an entry give the natural chain unless they say otherwise; changes in a name come on top.
UniProt P49916: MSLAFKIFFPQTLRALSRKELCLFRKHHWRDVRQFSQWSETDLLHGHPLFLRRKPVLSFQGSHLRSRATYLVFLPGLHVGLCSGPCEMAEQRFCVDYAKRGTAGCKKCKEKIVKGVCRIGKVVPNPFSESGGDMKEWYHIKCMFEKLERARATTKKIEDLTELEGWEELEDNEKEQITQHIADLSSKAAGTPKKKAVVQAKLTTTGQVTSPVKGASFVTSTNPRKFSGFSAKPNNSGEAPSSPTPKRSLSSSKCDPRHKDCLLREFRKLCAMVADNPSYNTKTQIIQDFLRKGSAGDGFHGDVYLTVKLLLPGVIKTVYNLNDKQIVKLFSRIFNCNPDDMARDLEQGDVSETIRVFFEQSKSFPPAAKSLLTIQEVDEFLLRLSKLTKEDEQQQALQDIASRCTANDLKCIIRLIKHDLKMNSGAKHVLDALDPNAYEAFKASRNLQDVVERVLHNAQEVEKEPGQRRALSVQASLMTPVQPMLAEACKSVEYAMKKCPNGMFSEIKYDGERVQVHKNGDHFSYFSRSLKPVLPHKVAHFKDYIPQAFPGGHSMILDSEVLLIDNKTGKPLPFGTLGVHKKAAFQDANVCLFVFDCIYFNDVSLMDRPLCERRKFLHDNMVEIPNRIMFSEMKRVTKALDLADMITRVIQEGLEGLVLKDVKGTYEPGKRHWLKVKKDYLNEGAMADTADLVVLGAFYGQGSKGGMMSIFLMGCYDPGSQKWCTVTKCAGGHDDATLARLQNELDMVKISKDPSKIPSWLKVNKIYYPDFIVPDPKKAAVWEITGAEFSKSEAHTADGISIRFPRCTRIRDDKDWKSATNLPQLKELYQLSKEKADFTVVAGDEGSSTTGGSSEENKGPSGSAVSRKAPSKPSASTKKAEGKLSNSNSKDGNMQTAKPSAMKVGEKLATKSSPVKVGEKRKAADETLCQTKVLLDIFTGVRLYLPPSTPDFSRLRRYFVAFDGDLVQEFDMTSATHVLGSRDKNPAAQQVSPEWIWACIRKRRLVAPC

These are yes or no findings as the source states them, for the method shown. Binding calls can cover weak binding; strength is not graded here.

For the substance “DNA ligase IIIα (LigIIIα), recombinant (from UniProt P49916) (enzyme)”, the binding entry was “binds”.

Source of the values: article PMC3733129.
